From PubChem BioAssay AID2685 (National Center for Advancing Translational Sciences (NCATS), 2010)
Screen size: about 320,000 compounds; about 2,100 (0.66%) were called active. Inconclusive means that the source gave no clear call. Such entries were picked first, then a sample of the others. Calls come from the whole dose curve; as a rule, active = well fitted inhibition curve with a large enough effect in the signal ratio, with a control signal flat (not every such curve was filed as active); inconclusive = small, poorly fitted or top-dose-only effect, or effect the other way, or a change in a side signal; inactive = flat fitted curve, though single readings scatter; the % refers to the signal ratio. Potencies beside an inconclusive call are fits to weak or partial responses and may not hold up.

assay: qHTS Assay for Lipid Storage Modulators in Drosophila S3 Cells; conditions: BODIPY lipid droplet fluorescence, 18-24 h, cells fed with added oleic acid; lipid storage change, negative = inhibition: at 46.1 µM (top of the series) unless noted
Summary of the method: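 Laser-scanning cytometry quantifies lipid droplet accumulation (500–530 nm total intensity; droplet/cell object ratio) in oleic acid-fed (400 uM added) Drosophila S3 cells treated with a concentration series. 20 uM Triacsin C defined 100% inhibition.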
% is set by controls: 0 for no effect and ±100 for the full control effect; potency is the fitted concentration of half-maximal effect.

SMILES	lipid storage change, negative = inhibition	Potency
Oc1cc(O)c2c(c1)OC(c1ccc(O)c(O)c1)C(O)C2 (configuration not stated)	inconclusive: -9.74%	
CC(C)Cc1nnc(NC(=O)CSc2nc(=O)cc(N)n2-c2ccccc2)s1	inconclusive: -45.2%	
Cc1ccc(NCCNc2ccc(C)cc2)cc1		inconclusive: 6510 nM [activator, single point]
CCOc1cc(CNc2ccc(N3CCOCC3)cc2)cc(Br)c1OCC	inconclusive: -4.9%	
CCCn1c(SCC(=O)NCCc2ccc(OC)c(OC)c2)nc2c1c(=O)n(C)c(=O)n2C	inconclusive: 31.2%	
CC(=O)c1ccc(NC(=O)CCNS(=O)(=O)c2cccc3nonc23)cc1		active: 23100 nM
COc1cc([C@@H]2CC=C(C(=O)O)[C@H](c3ccc(F)cc3)N2S(=O)(=O)c2ccc(C)cc2)cc(OC)c1OC		inconclusive: 3660 nM [activator, full curve]
Cc1cc(OC(=O)c2ccccc2Cl)ccc1N1C(=O)CCC1=O	inconclusive: 32.4%	
CCOc1ccccc1OCC(=O)O	inconclusive: 3.99%	
O=C(COc1ccc(Cl)cc1Cl)NN=C1c2ccccc2-c2ccccc21	inconclusive: 98.1%	
Cc1cc(Cl)c2oc(C(=O)N(C)CCCCN3CCOCC3)c(C)c2c1		active: 1300 nM
CCOc1cc(NC(=S)NCC2CCCO2)c(OCC)cc1NC(=O)c1ccc(OC)cc1 (configuration not stated)	inconclusive: 8.56%	
COc1ccc(OC)c(NC(=O)CN2C(=O)NC3(CCCc4ccccc43)C2=O)c1 (configuration not stated)	inconclusive: -34.8%	
COc1ccc(C(=O)Nc2ccc(Cl)cc2F)cc1S(=O)(=O)N1CCCC1	inconclusive: 13.5%	
COc1ccc(NC(=O)COC(=O)C2CC2)cc1S(=O)(=O)N1CCCCC1	inconclusive: 10.4%	
CC(C)=C1C2CCC1C1C(=O)N(NC(=O)COc3ccc(C(C)(C)C)cc3)C(=O)C21 (configuration not stated)		inconclusive: 29100 nM [activator, single point]
O=C1OC(Cc2ccccn2)C(=O)C1=C1SCCS1 (configuration not stated)	inconclusive: 22.3%	
CCCCCCC(=O)Nc1ccc(Cl)cn1	inconclusive: -8.74%	
Cc1cc(OC(C)C(=O)NCC2CCC(C(=O)O)CC2)c2c(C)cc(=O)oc2c1 (configuration not stated)	inactive: -6.17%	
O=C(CCC1CCCN(C(=O)c2ccc(F)c(F)c2)C1)N1CCN(c2ccccn2)CC1 (configuration not stated)	inconclusive: -11.2%	
O=P(O)(O)CCP(=O)(c1ccccc1)c1ccccc1	inconclusive: 54.3%	
Cc1noc(/C=C/NCc2cccnc2)c1S(=O)(=O)N(C)CC(=O)N1CCc2ccccc21	inconclusive: -12.8%	
CCc1nnc(NC(=O)CCCSc2nc3ccccc3[nH]2)s1	inconclusive: 21.5%	
Cc1cccc(OC(C)C(=O)OCC(=O)Nc2sccc2C(N)=O)c1 (configuration not stated)	inconclusive: 42.6%	
CNC(=O)c1csc(Cc2c(Cl)sc3ccc(Cl)cc23)n1	inconclusive: 15.2%	
COc1ccc(C2NC3=C(CCC3)C3(C#N)C(OC)(OC)N=C(N)C23C#N)cc1 (configuration not stated)	inconclusive: -0.357%	

Single records (already shown).
`CCCn1c(SCC(=O)NCCc2ccc(OC)c(OC)c2)nc2c1c(=O)n(C)c(=O)n2C` reads lipid storage change, negative = inhibition: inconclusive: 31.2%
`O=C1OC(Cc2ccccn2)C(=O)C1=C1SCCS1` (configuration not stated) reads lipid storage change, negative = inhibition: inconclusive: 22.3%

Remaining list, next part

SMILES	lipid storage change, negative = inhibition	Potency
O=C(COC(=O)/C=C/c1cccc(Br)c1)NC1CC1		inconclusive: 2310 nM [activator, partial curve, poor fit]
Cc1cc(=O)n2[nH]cc(-c3ccccc3)c2n1		inconclusive: 29100 nM [activator, single point]
CC(CCc1ccccc1)NS(=O)(=O)c1ccc(Cl)c(C(=O)O)c1 (configuration not stated)	inconclusive: -15.6%	
CC1CCN(C(=O)CSc2nc(N)cc(N)n2)CC1		inconclusive: 920 nM [falling, full curve, poor fit]
COc1ccc(C(=O)CSc2n[nH]c(=O)n2Cc2ccco2)cc1	inconclusive: 21.3%	
COc1ccccc1N1CCN(C(=O)CSc2ncccc2-c2nc3ccccc3[nH]2)CC1		inconclusive: 3260 nM [rising, partial curve]
Cc1cc([N+](=O)[O-])nn1CC(=O)N1CCOCC1	inconclusive: 0.596%	
CC(C)COc1cccc(C(=O)Nc2ccc(N3CCOCC3)cc2N2CCOCC2)c1	inconclusive	
O=C(Nc1ccc2ccccc2c1)c1cnccn1	inconclusive: 105%	
Cc1[nH]c(C)c(S(=O)(=O)NCCc2ccc(S(N)(=O)=O)cc2)c1C(=O)N1CCCC1		inconclusive: 2060 nM [falling, partial curve, poor fit]
CCC(C(=O)NC1CCCCC1)N(Cc1cccs1)C(=O)CCC(=O)Nc1cc(C)on1 (configuration not stated)		inconclusive: 4.1 nM [activator, full curve, poor fit]
O=C1Nc2ccccc2C(O)(C(=O)N2CCCCC2)N1c1ccccc1 (configuration not stated)	inconclusive: -32.5%	
CC1Cc2ccccc2N1C1=NS(=O)(=O)c2ccccc21 (configuration not stated)	inconclusive: -7.38%	
O=C(COC(=O)Cc1ccccc1F)NNC(=O)c1ccc(Cl)cc1	inconclusive	
CCCCNc1nc(CC(C)=O)ns1	inconclusive: -8.65%	
C=CCn1c(SCC(=O)C(C)(C)C)nnc1-c1ccccn1	inconclusive: 11.9%	
O=C(CCNC(=O)c1ccc(Cl)cc1)Nc1ccc(Cl)cc1F	inconclusive: 15.9%	
O=C(COC(=O)c1cc(S(=O)(=O)N2CCOCC2)ccc1Cl)NCc1ccc2c(c1)OCO2	inconclusive: -40.8%	
CC(=O)Nc1ccc(S(=O)(=O)NC2(C(F)(F)F)NC(=O)N(C3CCCC3)C2=O)cc1 (configuration not stated)	inconclusive: -25.6%	
COc1ccc(NC(=S)N2CCN(C(c3ccccc3)c3ccccc3)CC2)c(OC)c1	inconclusive: 15.5%	
O=C(COC(=O)c1ccccc1OC(F)F)Nc1ccc2[nH]c(=O)[nH]c2c1	inconclusive	
CN(C)C(=O)c1cnc(Sc2ncc(C(F)(F)F)cc2Cl)n1C	inconclusive: -36.4%	
COc1cc(/C=C2\SC(=Nc3ccccc3)N(Cc3ccco3)C2=O)ccc1OC(C)C(=O)O (configuration not stated)	inconclusive: 114%	
C=CCNC(=S)NNC(=O)C(CCC(C)C)CC(C)(C)O (configuration not stated)	inconclusive: 1.08%	
CC(C)Cn1c(SCC(=O)N2CCOCC2)nc2ccccc2c1=O	inconclusive: 48.8%	
Cc1nc(NCCCn2ccnc2)c2ccccc2n1		inconclusive: 92 nM [falling, full curve, poor fit]
